± gives the standard deviation of the averaged measurements. The list shows a part of the results.

Chains of the proteins cited; added tags and fusions are not shown. Lines headed by an entry give the natural chain unless they say otherwise; changes in a name come on top.
UniProt P30613: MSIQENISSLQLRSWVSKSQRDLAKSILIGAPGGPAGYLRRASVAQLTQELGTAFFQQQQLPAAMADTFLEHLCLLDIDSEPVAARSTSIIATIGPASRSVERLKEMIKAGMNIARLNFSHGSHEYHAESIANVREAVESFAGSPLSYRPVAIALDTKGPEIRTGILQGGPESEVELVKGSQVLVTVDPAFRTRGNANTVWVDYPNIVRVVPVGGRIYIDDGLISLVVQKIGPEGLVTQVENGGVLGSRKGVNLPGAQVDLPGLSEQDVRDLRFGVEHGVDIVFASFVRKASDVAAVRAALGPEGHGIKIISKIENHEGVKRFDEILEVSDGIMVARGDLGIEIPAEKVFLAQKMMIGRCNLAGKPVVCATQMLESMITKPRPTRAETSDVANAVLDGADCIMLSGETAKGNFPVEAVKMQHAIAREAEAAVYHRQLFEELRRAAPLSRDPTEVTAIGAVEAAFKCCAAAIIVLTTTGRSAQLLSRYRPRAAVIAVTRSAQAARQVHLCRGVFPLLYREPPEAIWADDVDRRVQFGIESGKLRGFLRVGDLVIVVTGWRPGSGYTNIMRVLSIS
UniProt P41250: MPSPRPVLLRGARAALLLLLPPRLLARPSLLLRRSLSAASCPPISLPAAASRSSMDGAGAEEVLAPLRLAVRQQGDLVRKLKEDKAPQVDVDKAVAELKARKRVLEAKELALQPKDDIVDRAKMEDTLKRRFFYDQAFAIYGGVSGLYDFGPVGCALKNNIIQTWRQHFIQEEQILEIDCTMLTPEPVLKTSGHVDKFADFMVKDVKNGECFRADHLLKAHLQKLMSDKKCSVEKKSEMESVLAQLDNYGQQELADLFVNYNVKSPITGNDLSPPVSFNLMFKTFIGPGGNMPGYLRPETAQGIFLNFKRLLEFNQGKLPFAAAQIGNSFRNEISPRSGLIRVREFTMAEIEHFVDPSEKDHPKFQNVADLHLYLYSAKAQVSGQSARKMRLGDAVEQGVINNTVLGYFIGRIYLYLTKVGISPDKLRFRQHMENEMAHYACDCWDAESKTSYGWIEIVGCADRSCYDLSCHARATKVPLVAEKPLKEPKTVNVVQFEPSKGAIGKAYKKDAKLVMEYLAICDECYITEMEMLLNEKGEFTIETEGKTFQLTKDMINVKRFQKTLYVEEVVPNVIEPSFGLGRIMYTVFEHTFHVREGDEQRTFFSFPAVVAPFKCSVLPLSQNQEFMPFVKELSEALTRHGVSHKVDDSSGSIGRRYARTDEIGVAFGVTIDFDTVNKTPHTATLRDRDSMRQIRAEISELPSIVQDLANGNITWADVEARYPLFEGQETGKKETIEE
UniProt P30260, whole entry: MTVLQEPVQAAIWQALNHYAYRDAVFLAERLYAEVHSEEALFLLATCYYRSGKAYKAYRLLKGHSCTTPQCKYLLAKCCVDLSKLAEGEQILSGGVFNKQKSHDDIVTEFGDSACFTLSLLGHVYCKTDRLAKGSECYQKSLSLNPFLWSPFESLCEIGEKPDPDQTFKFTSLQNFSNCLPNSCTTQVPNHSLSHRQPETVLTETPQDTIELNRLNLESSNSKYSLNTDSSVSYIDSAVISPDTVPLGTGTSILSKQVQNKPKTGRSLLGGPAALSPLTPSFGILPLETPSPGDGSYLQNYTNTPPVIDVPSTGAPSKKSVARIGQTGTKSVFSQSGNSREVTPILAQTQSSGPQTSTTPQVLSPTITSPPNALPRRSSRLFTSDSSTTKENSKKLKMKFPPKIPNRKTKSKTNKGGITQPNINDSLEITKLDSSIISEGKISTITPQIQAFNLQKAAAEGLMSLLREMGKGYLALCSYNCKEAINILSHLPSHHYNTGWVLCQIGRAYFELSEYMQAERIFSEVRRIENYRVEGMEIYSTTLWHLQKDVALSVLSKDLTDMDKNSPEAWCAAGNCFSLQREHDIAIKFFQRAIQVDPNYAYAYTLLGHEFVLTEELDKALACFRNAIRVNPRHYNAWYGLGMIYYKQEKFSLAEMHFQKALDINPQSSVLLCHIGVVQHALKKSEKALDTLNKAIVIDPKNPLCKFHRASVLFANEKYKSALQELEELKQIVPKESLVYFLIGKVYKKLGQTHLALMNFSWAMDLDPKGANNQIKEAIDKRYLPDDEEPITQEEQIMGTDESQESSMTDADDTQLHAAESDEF
UniProt P32942: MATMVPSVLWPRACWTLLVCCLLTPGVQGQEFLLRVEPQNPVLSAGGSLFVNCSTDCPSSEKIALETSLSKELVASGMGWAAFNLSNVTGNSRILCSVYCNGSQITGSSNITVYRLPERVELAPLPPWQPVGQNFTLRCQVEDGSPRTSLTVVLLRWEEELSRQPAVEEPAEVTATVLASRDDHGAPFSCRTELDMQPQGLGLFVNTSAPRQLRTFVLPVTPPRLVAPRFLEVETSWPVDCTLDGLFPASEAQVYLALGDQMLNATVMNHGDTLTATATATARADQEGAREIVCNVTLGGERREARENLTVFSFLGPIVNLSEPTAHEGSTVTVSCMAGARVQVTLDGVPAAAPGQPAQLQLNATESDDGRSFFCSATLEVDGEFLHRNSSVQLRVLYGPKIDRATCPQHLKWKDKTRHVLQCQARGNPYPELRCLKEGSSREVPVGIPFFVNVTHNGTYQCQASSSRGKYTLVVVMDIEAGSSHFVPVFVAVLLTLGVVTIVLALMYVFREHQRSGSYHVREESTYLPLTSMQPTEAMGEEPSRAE

The results in this text go back to the supplement of paper PMC6411743.

Compound in this test: Nc1nc2c(ncn2[C@@H]2O[C@H](COP(=O)(O)OP(=O)(O)OP(=O)(O)O)[C@@H](O)[C@H]2O)c(=O)[nH]1 [guanosine triphosphate]
Description: NP40-soluble protein abundance relative to vehicle (solubility fold change) (ratio); higher = more soluble protein in presence of GTP. The protocol:
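Solubility proteome profiling in Jurkat crude lysate. Lysate was treated with Mg-GTP (0.1-10 mM) for 10 min at room temperature and 3 min at 37 °C, then solubilised with 0.8% NP40 and benzonase, followed by ultracentrifugation. Proteins were quantified by TMT10 LC-MS/MS; the value is the NP40-soluble abundance relative to the NP40-processed vehicle, from 3 independent experiments.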

With UniProt P30613 and related entries, the NP40-soluble protein abundance runs as follows: (concentration: 0.1mM) 1.19 ± 0.25; (concentration: 0.5mM) 1.21 ± 0.22; (concentration: 1mM) 1.05 ± 0.099; (concentration: 2mM) 1.08 ± 0.23; (concentration: 4mM) 1.01 ± 0.2; (concentration: 6mM) 1.03 ± 0.18. For the same target, the NP40-soluble protein abundance is 0.886 ± 0.16 (concentration: 8mM) and 0.804 ± 0.26 (concentration: 10mM).

Regarding UniProt P41250, the NP40-soluble protein abundance is 1 ± 0.019 (concentration: 0.1mM); 1.012 ± 0.0078 (concentration: 0.5mM); 0.963 ± 0.022 (concentration: 1mM); 0.918 ± 0.026 (concentration: 2mM); 0.899 ± 0.036 (concentration: 4mM); 0.923 ± 0.036 (concentration: 6mM). The NP40-soluble protein abundance runs as follows: (concentration: 8mM) 0.901 ± 0.041; (concentration: 10mM) 0.868 ± 0.052.

In the case of UniProt P49750-4, the NP40-soluble protein abundance was found to be 1.01 ± 0.013 (concentration: 0.1mM); 1.04 ± 0.033 (concentration: 0.5mM); 1.11 ± 0.038 (concentration: 1mM); 1.16 ± 0.064 (concentration: 2mM); 1.27 ± 0.034 (concentration: 4mM); 1.37 ± 0.058 (concentration: 6mM). Also, the NP40-soluble protein abundance is, setting by setting: (concentration: 8mM) 1.54 ± 0.13; (concentration: 10mM) 1.62 ± 0.17.

As to UniProt P30260 and related entries, the NP40-soluble protein abundance (concentration: 0.1mM) turned out to be 1.08 ± 0.039; the NP40-soluble protein abundance (concentration: 0.5mM) amounted to 1.1 ± 0.083; the NP40-soluble protein abundance (concentration: 1mM) was 1.12 ± 0.086; the NP40-soluble protein abundance (concentration: 2mM) amounted to 1.18 ± 0.14; the NP40-soluble protein abundance (concentration: 4mM) stood at 1.19 ± 0.17; the NP40-soluble protein abundance (concentration: 6mM) was 1.24 ± 0.19. Besides, the NP40-soluble protein abundance (concentration: 8mM) is 1.25 ± 0.18 and the NP40-soluble protein abundance (concentration: 10mM) came out at 1.17 ± 0.22.

Take ICAM3 (UniProt P32942): the NP40-soluble protein abundance runs as follows: (concentration: 0.1mM) 0.953 ± 0.017; (concentration: 0.5mM) 0.944 ± 0.029; (concentration: 1mM) 0.973 ± 0.027; (concentration: 2mM) 0.917 ± 0.073; (concentration: 4mM) 0.911 ± 0.061; (concentration: 6mM) 0.923 ± 0.051. For the same target, the NP40-soluble protein abundance is, setting by setting: (concentration: 8mM) 0.923 ± 0.035; (concentration: 10mM) 0.954 ± 0.038.
